This passage reports binding results from PMC4860837, “Structural basis for Sfm1 functioning as a protein arginine methyltransferase” (Cell Discovery, 2015).

No constants are given. Whether binding was seen depends on the method and setting. In cells and extracts the contact can be indirect. These calls come from enrichment with a bait or labelling near it, and not all partners need be listed. Sequences can lack the tags named with a protein.

This assay addresses T1, GST-tagged yeast S3 expressed in yeast (S. cerevisiae) (UniProt P05750).
T1 sequence: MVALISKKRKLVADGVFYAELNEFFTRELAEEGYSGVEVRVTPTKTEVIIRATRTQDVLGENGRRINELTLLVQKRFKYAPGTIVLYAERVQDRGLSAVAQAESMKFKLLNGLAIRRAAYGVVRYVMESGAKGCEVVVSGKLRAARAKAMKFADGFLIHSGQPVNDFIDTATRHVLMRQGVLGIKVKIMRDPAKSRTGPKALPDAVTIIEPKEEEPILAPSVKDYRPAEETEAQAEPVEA
As to the kind of experiment: affinity purification with mass spectrometry; GST-S3 and untagged Sfm1 co-expressed in yeast YPH499; GST-S3 complex purified on glutathione sepharose beads, chymotrypsin digest, LC-MS.

B1: Yar1 (found with GST-S3 in yeast) (protein, UniProt P46683 1-200)
chain: MGLHSEPLDQEDQDTIILDARAGDLDSLKDIFTTLVSPELLSTCKESESDSTALHMAAANGHIETVRYILETVSRANSAEDLKAFVNEVNKTGNTALHWASLNGKLDVVKLLCDEYEADPFIRNKFGHDAIFEAENSGKEEVETYFLKKYDVEPEDDEEDTQTEGKNSVQITKGTEIEQVTKEATEALREETEKLNINKD
As for B1, the binding result is “binds”.
